Consider two substances from article PMC10629583, “Specific inhibition of an anticancer target, polo-like kinase 1, by allosterically dismantling its mechanism of substrate recognition” (Proceedings of the National Academy of Sciences of the …, 2023).

The chains behind the UniProt entries cited, without tags or fusion partners. Where a name states a change or a piece, a line headed by the entry shows the natural chain unless it says otherwise.
UniProt P53350: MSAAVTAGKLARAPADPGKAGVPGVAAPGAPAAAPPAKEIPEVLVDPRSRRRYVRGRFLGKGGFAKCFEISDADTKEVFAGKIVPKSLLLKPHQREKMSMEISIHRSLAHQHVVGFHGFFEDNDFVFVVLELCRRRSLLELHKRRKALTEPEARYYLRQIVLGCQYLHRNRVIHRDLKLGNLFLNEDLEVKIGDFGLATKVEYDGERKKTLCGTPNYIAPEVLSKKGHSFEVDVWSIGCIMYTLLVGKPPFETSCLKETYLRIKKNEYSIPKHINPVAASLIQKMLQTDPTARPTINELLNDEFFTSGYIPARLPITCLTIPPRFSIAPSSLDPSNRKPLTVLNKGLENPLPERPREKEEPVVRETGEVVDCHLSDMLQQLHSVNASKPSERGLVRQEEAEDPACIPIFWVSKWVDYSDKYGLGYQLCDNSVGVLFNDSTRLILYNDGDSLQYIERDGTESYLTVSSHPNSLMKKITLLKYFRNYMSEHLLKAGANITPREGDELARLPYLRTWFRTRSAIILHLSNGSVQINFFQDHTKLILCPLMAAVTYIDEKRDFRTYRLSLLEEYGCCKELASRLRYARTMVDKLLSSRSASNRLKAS
UniProt P35222: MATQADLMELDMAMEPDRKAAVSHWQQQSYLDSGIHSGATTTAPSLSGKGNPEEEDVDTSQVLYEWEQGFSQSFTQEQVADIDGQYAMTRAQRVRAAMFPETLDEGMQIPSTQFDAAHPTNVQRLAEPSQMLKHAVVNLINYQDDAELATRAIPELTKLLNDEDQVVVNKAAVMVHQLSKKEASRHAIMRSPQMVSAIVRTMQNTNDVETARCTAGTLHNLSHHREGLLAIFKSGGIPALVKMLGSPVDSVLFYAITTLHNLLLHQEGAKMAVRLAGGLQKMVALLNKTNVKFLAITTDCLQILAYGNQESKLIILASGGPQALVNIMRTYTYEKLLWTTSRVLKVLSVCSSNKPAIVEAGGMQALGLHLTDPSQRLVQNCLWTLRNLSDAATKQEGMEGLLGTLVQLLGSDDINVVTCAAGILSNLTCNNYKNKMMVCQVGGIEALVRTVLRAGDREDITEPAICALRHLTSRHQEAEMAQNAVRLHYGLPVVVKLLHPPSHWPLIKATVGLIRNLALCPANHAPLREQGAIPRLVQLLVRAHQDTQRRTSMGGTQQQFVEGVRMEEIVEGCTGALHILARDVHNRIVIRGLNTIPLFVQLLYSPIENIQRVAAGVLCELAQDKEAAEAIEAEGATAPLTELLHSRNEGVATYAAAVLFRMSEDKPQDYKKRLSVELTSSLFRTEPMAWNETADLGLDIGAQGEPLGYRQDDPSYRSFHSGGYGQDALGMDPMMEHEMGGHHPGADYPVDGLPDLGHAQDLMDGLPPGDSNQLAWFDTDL
UniProt O60566: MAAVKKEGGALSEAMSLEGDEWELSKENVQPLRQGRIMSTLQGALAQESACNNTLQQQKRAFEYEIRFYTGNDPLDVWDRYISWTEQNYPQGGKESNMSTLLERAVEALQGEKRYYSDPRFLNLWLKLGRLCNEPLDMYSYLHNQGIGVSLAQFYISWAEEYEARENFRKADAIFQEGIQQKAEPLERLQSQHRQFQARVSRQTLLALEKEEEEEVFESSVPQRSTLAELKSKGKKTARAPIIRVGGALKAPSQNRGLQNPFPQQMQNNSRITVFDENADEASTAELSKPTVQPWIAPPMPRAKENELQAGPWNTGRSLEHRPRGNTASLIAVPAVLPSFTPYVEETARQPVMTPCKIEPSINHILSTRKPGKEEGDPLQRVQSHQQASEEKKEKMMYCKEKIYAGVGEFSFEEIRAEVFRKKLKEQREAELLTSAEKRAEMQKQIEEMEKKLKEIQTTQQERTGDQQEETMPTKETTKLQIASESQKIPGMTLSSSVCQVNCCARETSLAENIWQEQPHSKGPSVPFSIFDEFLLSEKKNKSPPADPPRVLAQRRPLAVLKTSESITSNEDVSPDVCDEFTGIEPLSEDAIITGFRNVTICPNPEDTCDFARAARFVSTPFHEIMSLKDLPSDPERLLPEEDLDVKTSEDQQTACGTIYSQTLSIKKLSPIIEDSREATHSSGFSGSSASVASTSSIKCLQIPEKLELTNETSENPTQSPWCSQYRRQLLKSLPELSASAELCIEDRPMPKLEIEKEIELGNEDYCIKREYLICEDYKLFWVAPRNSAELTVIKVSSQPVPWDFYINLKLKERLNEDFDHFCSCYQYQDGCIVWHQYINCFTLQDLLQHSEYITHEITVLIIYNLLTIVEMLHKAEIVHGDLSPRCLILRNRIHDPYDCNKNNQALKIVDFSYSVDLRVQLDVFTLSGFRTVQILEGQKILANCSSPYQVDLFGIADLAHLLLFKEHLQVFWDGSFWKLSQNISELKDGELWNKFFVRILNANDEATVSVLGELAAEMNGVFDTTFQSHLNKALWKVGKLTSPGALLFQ

Test [1] concerns the target Flag-Plk1 (polo-like kinase 1), wild type (human) (UniProt P53350). Nature of the test: co-IP; anti-Flag immunoprecipitation from HeLa cells stably expressing Flag-Plk1 WT or F559D, TBSN buffer (20 mM Tris-Cl pH 8.0, 150 mM NaCl, 0.5% NP-40); cells treated with 600 nM nocodazole 16 h and 300 nM okadaic acid 1.5 h, and with DMSO or 20 μM Allopole for 2 h; immunoblot.
The target of test [2] is Flag-Plk1 F559D mutant (human) (UniProt P53350). The test is described as above.

These are yes or no findings as the source states them, for the method shown. Binding seen in cells or lysates may run through a third protein. Some results given as binding are weak or reduced against the parent protein; the word gives no strength.

β-catenin (from UniProt P35222 1-781): the binding result in test [1] is given as “binds”. Consider “phosphorylated BubR1 (from UniProt O60566 1-1050)”, for which the binding result in test [2] is given as “binds”.
